Results are given in words; binding and its absence hold for the method and conditions named. In cells and extracts the contact can be indirect. Some entries that bind do so weakly or less than the wild type.
What was measured:
Assay in all cases: co-IP; HeLa cells co-transfected with 2.5 ug each of untagged and C-terminally Myc-tagged A3G vectors; lysis in 0.5% Triton X-100, 287 mM NaCl, 2.68 mM KCl, 1.47 mM KH2PO4, Na2HPO4, pH 7.2; immunoprecipitation with Myc-specific monoclonal antibody 9E10; blot with A3G-specific Apo-C17
[1] = molecular target: wild type human APOBEC3G carrying a C-terminal Myc epitope tag (human) (UniProt Q9HC16)
[2] = molecular target: Myc-tagged A3G W127A (human) (UniProt Q9HC16)
[3] = molecular target: Myc-tagged A3G Y124A (human) (UniProt Q9HC16)

Protein sequences, listed by entry. Tags and fused reporters are not part of them. Lines headed by an entry give the natural chain unless they say otherwise; changes in a name come on top.
UniProt Q9HC16: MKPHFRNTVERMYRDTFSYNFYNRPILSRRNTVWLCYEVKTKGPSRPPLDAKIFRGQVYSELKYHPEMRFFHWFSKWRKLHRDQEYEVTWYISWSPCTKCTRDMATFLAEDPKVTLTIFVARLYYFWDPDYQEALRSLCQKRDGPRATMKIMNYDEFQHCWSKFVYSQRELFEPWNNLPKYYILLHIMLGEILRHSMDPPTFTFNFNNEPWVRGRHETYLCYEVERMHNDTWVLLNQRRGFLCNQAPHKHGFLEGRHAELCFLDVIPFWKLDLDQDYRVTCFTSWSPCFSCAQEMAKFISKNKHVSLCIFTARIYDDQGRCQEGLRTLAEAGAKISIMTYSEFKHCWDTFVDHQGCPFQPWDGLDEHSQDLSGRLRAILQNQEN

Substance	binding [1]	binding [2]	binding [3]
untagged A3G W127A (from UniProt Q9HC16 1-384)	binds		
untagged A3G Y124A (from UniProt Q9HC16 1-384)	binds		
untagged human APOBEC3G wild type (from UniProt Q9HC16 1-384)		binds weakly	binds

Reference: paper PMC2776001
